Some of the results follow. Most values lie within the scatter of the assay; repeated measurements hardly agree. Peptide text beside a SMILES is read from it. * marks the point of attachment. For = O=C*

Sequences of proteins named here, by UniProt entry; tags and fusion partners are left off.
UniProt Q15717, whole entry: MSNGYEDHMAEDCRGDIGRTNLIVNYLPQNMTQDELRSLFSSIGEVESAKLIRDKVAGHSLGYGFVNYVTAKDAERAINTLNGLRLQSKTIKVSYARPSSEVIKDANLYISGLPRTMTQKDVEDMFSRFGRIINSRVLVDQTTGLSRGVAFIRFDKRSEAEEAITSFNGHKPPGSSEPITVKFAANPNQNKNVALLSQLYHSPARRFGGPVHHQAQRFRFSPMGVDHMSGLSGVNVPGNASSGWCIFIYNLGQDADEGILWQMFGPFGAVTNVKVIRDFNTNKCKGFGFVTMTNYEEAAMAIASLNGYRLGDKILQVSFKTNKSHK

For this assay, the target named is HuR (ELAVL1) - TNFalpha ARE RNA complex (UniProt Q15717). Put plainly: AlphaScreen HuR-RNA complex signal Z-score relative to positive (Bi-TNF, DMSO) controls (Z-score (SD units of positive control)); higher = more complex signal. The settings on record: screen stage: primary screen; compound concentration: 25 nM. In general terms: In Alpha technology, singlet oxygen from a donor bead excites a nearby acceptor bead.
Regarding `Cc1cc2cc3c(C)cc(=O)oc3c(C)c2o1`, the “AlphaScreen HuR-RNA complex signal Z-score” value is -0.867.
On to `CC(=O)Nc1nnc(S(N)(=O)=O)s1`, for which the “AlphaScreen HuR-RNA complex signal Z-score” value is 0.311.
The same measure for `COC1=CC(=O)C(O)=C/C1=C\C=C\c1ccccc1`: 1.78; for `COc1cc(O)c2c(=O)cc(C)oc2c1CC=C(C)C`: 2.12.
The same measure for `OC[C@@H](O)[C@@H](O[C@@H]1O[C@H](CO)[C@@H](O)[C@H](O)[C@H]1O)[C@H](O)[C@@H](O)CO`: 1.87; for `C[N+](C)(C)CC(O)CC(=O)[O-]` (configuration not stated): 1.18.
Turning to `Nc1ncnc2c1ncn2[C@@H]1O[C@H](CO)[C@@H](O)[C@@H]1O`, the “AlphaScreen HuR-RNA complex signal Z-score” value is -0.97.
The same measure for `O=c1[nH]cnc2nc[nH]c12`: 1.91.
The same measure for `C[C@@](Cc1ccc(O)c(O)c1)(NN)C(=O)O`: 2.2.
As for `CC(C)CC(NC(=O)OCC1c2ccccc2-c2ccccc21)C(=O)O` (stereo in doubt), the figure is 2.24.
As to `CN(C)CCC(c1ccc(Br)cc1)c1ccccn1` (configuration not stated), the “AlphaScreen HuR-RNA complex signal Z-score” value worked out at 0.674.
The same measure for `Oc1c(Cl)cc(Cl)c2cccnc12`: 1.34; for `c1ccc(-c2ccc(C(c3ccccc3)n3ccnc3)cc2)cc1` (configuration not stated): 0.724; for `N#Cc1ccc2c(c1)N(CCCN1CCC(O)CC1)c1ccccc1S2`: 2.59.
The same measure for `CCC1(c2ccccc2)C(=O)NCNC1=O`: 7.34; for `NC(Cn1ccc(=O)c(O)c1)C(=O)O` (configuration not stated): -0.346.
For the compound `CC(C)NCC(O)COc1ccc(CC(N)=O)cc1` (configuration not stated), the “AlphaScreen HuR-RNA complex signal Z-score” value worked out at 0.669.
As for `Oc1cc2c(cc1O)C(c1ccccc1)CNCC2` (configuration not stated), the figure is 0.672; as for `CN1CCN(CC(=O)N2c3ccccc3C(=O)Nc3cccnc32)CC1`, 1; as for `COC(=O)Nc1nc2cc(Sc3ccccc3)ccc2[nH]1`, 0.209.
On to `N=C(N)NCCCCNC(=N)N`, for which the “AlphaScreen HuR-RNA complex signal Z-score” value came out at 1.57.
Take `CO[C@H]1/C=C/O[C@@]2(C)Oc3c(C)c(O)c4c(O)c(c5c(nc6cc(C)ccn65)c4c3C2=O)NC(=O)/C(C)=C\C=C\[C@H](C)[C@H](O)[C@@H](C)[C@@H](O)[C@@H](C)[C@H](OC(C)=O)[C@@H]1C`: the “AlphaScreen HuR-RNA complex signal Z-score” value was -0.875.
As for `Clc1cccc(Cl)c1NC1=NCCN1`, the figure is -5.2.
As for `CC1(C)CC2C1CC[C@]1(C)CCC3C(C(=O)O)CC(=O)O[C@@]32C1` (some centres not stated) [3-HYDROXY-4-(SUCCIN-2-YL)-CARYOLANE delta-LACTONE], the figure is 2.54; as for `CCCNC(=O)NS(=O)(=O)c1ccc(Cl)cc1`, -1.67; as for `CCN(CC)C(C)CN1c2ccccc2Sc2ccccc21` (configuration not stated), -2.63.
As for `CC(=O)O[C@]1(C(C)=O)CC[C@H]2[C@@H]3C=C(Cl)C4=CC(=O)CC[C@]4(C)[C@H]3CC[C@@]21C`, the figure is 2.38; as for `NCCCCCC(=O)O`, 0.32.
Consider `CC(=O)OC/C=C(\C)CC/C=C(\C)CC/C=C(\C)CC/C=C(\C)CC/C=C(\C)CC/C=C(\C)CC/C=C(\C)CC/C=C(\C)CCC=C(C)C`, for which the “AlphaScreen HuR-RNA complex signal Z-score” value was 0.982.
As for `CN(C)C(=N)NC(=N)N`, the “AlphaScreen HuR-RNA complex signal Z-score” value was 0.799.
The same measure for `CC1CC2C3CCC4=CC(=O)C=CC4(C)C3(F)C(O)CC2(C)C1C(=O)CO` (configuration not stated): 2.7.
As for `CNCCc1ccccn1`, the figure is -0.7; as for `C[C@H]1[C@H](C)CC[C@]2(C(=O)O)CC[C@]3(C)C(=CC[C@@H]4[C@@]5(C)CC[C@H](O)C(C)(C)[C@@H]5CC[C@]43C)[C@H]12`, 1.55; as for `CCN(CC)C(=O)c1ccc(O)c(OC)c1`, 2.2.
The same measure for `NC1(C(=O)O)CC1`: 2.4.
With `Oc1cc2c(cc1O)C1c3ccc(O)c(O)c3OCC1(O)C2` (configuration not stated), the “AlphaScreen HuR-RNA complex signal Z-score” value was found to be 2.53.
The same measure for `CC(=O)[C@@]1(O)CC[C@H]2[C@@H]3CCC4=CC(=O)CC[C@]4(C)[C@H]3CC[C@@]21C`: 0.395; for `CN(C)CCOC(c1ccccc1)c1ccccc1.Cn1c(=O)c2[nH]c(Cl)nc2n(C)c1=O`: -3.39; for `C[C@@H]1CC[C@@]23CCC4(C)[C@@](C=CC5[C@@]6(C)CC[C@H](O)C(C)(C)C6CC[C@]54C)(OC2=O)C3[C@H]1C` (some centres not stated): -4.93.
As for `O=C1NCC2(CCN(CCc3ccccc3)CC2)O1`, the figure is 0.733; as for `COc1cc(C)c(C(=O)Oc2cc(C)c(C(=O)O)c(O)c2C)c(OC)c1C`, 2.14; as for `CSCC[C@H](NC=O)C(=O)N[C@@H](Cc1ccccc1)C(=O)O` (For-Met-Phe-OH), 1.7.
In the case of `CC(=O)O[C@@H]1C[C@H]2C(C)(C)C(=O)C=C[C@]2(C)[C@H]2CC[C@@]3(C)[C@H](c4ccoc4)OC(=O)[C@H]4O[C@]43[C@@]21C`, the “AlphaScreen HuR-RNA complex signal Z-score” value was -0.19.
As for `Cc1cc2nc3c(=O)[nH]c(=O)nc-3n(C[C@H](O)[C@H](O)[C@H](O)CO)c2cc1C`, the figure is 1.5; as for `NC(=O)c1ccc[n+]([C@@H]2O[C@H](COP(=O)([O-])OP(=O)(O)OC[C@H]3O[C@@H](n4cnc5c(N)ncnc54)[C@H](O)[C@@H]3O)[C@@H](O)[C@H]2O)c1`, 3.96; as for `NCC(=O)CCC(=O)O`, 1.79.
The same measure for `COc1ccc(CN(CCN(C)C)c2ncccn2)cc1`: 0.865.
As for `COc1c2ccoc2cc2oc(C)cc(=O)c12`, the figure is -4.88; as for `Cc1ccc(C)c(OCCCC(C)(C)C(=O)O)c1`, -1.89; as for `COC(=O)c1c(C)c2c(c(C)c1O)OC(=O)c1c(C)c(Cl)c(O)c(Cl)c1O2`, 2.17.
In the case of `NCCC(=O)c1ccccc1N`, the “AlphaScreen HuR-RNA complex signal Z-score” value was 1.99.
As for `COc1cc2c(cc1OC)[C@@H]1Cc3ccc(OC)c(OC)c3CN1CC2`, the figure is 2.28.
The same measure for `O=C(CCCN1CCC(O)(c2ccc(Cl)cc2)CC1)c1ccc(F)cc1`: -1.71.
For the compound `CC1(C)[C@@H](O)CC[C@]2(C)[C@H]3C(=O)C=C4[C@@H]5C[C@@](C)(C(=O)O)CC[C@]5(C)CC[C@@]4(C)[C@]3(C)CC[C@@H]12`, the “AlphaScreen HuR-RNA complex signal Z-score” value worked out at 2.46.
The same measure for `CCCCCC(=O)Cc1cc(O)cc(O)c1C(=O)Oc1cc(CC(=O)CCCCC)c(C(=O)O)c(OC)c1`: 2.18.
The same measure for `COc1ccc(-c2coc3cc(O)ccc3c2=O)c(O)c1O`: 2.08.
The same measure for `COCCOC(=O)C1=C(C)NC(C)=C(C(=O)OC(C)C)C1c1cccc([N+](=O)[O-])c1` (configuration not stated): 0.639.
Regarding `NCCS`, the “AlphaScreen HuR-RNA complex signal Z-score” value was 1.83.
As for `CN1C(C(=O)Nc2ccccn2)=C(O)c2ccccc2S1(=O)=O`, the figure is 5.22.
The same measure for `Cc1c(NC(C)C)c(=O)n(-c2ccccc2)n1C`: 2.23; for `O=c1cc(-c2ccc(O)cc2)oc2cc(O[C@@H]3O[C@H](CO)[C@@H](O)[C@H](O)[C@H]3O)cc(O)c12`: -0.176; for `CCCCCCCCCCOc1cc2c(O)c(C(=O)OCC)cnc2cc1OCC`: -1.69.
In the case of `CC(C)c1cccc(=O)c(O)c1`, the “AlphaScreen HuR-RNA complex signal Z-score” value is 0.991.
The same measure for `COc1ccc([C@@H]2Sc3ccccc3N(CCN(C)C)C(=O)[C@@H]2OC(C)=O)cc1`: 4.2.
As for `Cc1cn([C@H]2C[C@H](N=[N+]=[N-])[C@@H](CO)O2)c(=O)[nH]c1=O`, the figure is 0.272; as for `CC(C[N+](C)(C)C)OC(N)=O` (configuration not stated), 0.37; as for `CC(=O)O[C@@H]1CC[C@@]2(C)C(C[C@@H](OC(C)=O)[C@@]3(C)C4=CC(=O)O[C@@H](c5ccoc5)[C@]4(C)CCC23)C1(C)C` (stereo partly drawn) [3alpha-ACETOXYDIHYDRODEOXYGEDUNIN], 0.804.
As for `O=C(O)CCCC[C@@H]1CCSS1`, the figure is 1.11; as for `CC(=O)O[C@H]1C[C@@H](O)C(C)(C)[C@@H]2C[C@@H](OC(C)=O)[C@]3(C)[C@H](CC[C@@]4(C)[C@@H](c5ccoc5)OC(=O)[C@H]5O[C@@]534)[C@@]12C`, 0.0179; as for `C=C(C)[C@H]1COc2cc3oc(=O)ccc3cc2O1`, 2.7.
Take `O=C1N=C(O)NC1(c1ccccc1)c1ccccc1`: the “AlphaScreen HuR-RNA complex signal Z-score” value is 0.919.
For `COc1cc(NS(=O)(=O)c2ccc(N)cc2)nc(OC)n1`, the “AlphaScreen HuR-RNA complex signal Z-score” value turned out to be 0.221.
As for `CC[N+](CC)(CC(=O)Nc1c(C)cccc1C)Cc1ccccc1`, the figure is 1.68; as for `COc1cc2ccc(=O)oc2cc1O`, 0.714; as for `CC1(C)O[C@@H]2[C@@H](CO[C@@]3(COS(N)(=O)=O)OC(C)(C)O[C@@H]23)O1`, -1.05.
As for `COc1cc2oc3cc(OC)c(OC)c(CC=C(C)C)c3c(=O)c2c(O)c1CC=C(C)C`, the figure is 0.396.
As for `CC(=O)OCC(=O)[C@@]1(O)[C@H](OC(C)=O)C[C@H]2[C@@H]3CCC4=CC(=O)C=C[C@]4(C)[C@@]3(F)[C@@H](O)C[C@@]21C`, the figure is -1.41; as for `O=C(C=Cc1ccc(O)cc1)c1ccccc1O`, 1.35.
On to `COc1ccc2c3c1O[C@H]1C[C@@H](O)C=C[C@@]31CCN(C)C2`, for which the “AlphaScreen HuR-RNA complex signal Z-score” value worked out at 1.16.
The same measure for `CCCC(=O)O[C@]1(C(=O)CO)CC[C@H]2[C@@H]3CCC4=CC(=O)CC[C@]4(C)[C@H]3[C@@H](O)C[C@@]21C`: 0.968.
As for `CC1(C)S[C@@H]2[C@H](NC(=O)COc3ccccc3)C(=O)N2[C@H]1C(=O)O`, the figure is 5.48.
As for `Cc1nnc(SCC2=C(C(=O)O)N3C(=O)[C@@H](NC(=O)Cn4cnnn4)[C@H]3SC2)s1`, the figure is -3.66; as for `O=c1[nH]c(=O)n([C@H]2C[C@H](O)[C@@H](CO)O2)cc1C(F)(F)F`, 2.08.
With `O=C1OC(=O)[C@H]2[C@@H]1[C@@H]1CC[C@H]2O1`, the “AlphaScreen HuR-RNA complex signal Z-score” value worked out at 0.868.
The same measure for `C[C@]12CCC3c4ccc(OS(=O)(=O)O)cc4CCC3C1CC[C@H]2O` (some centres not stated): 2.06.
The same measure for `CC(C)NC(=N)NC(=N)Nc1ccc(Cl)cc1`: -2.35; for `CC(C)[C@@H]1CC[C@@H](C)CC1=O`: 2.36.
The same measure for `NCCCCN`: 1.58; for `CC1=CC2C(CC1=O)C(C)=CCC2C(C)C` (configuration not stated): 1.5.
`CCCCCCCCNC(C)C(O)c1ccc(SC(C)C)cc1` (configuration not stated): the “AlphaScreen HuR-RNA complex signal Z-score” value worked out at 1.31.
Turning to `C[C@H]1O[C@@H](O[C@H]2[C@@H](O)C[C@H](O[C@H]3[C@@H](O)C[C@H](O[C@H]4CC[C@@]5(C)[C@H](CC[C@@H]6[C@@H]5CC[C@]5(C)[C@@H](C7=CC(=O)OC7)CC[C@]65O)C4)O[C@@H]3C)O[C@@H]2C)C[C@H](O)[C@@H]1O`, the “AlphaScreen HuR-RNA complex signal Z-score” value was -0.879.
As for `C=C(C)[C@@H]1CC[C@]2(C)CC[C@]3(C)[C@H](CC[C@@H]4[C@@]5(C)CC[C@H](O)C(C)(C)[C@@H]5CC[C@]43C)[C@@H]12`, the figure is 0.231.
In the case of `S=c1[nH]cnc2nc[nH]c12`, the “AlphaScreen HuR-RNA complex signal Z-score” value is -4.74.
Turning to `COc1cc2c(cc1OC)[C@@H]1C(=O)c3ccc4c(c3O[C@@H]1CO2)C=CC(C)(C)O4`, the “AlphaScreen HuR-RNA complex signal Z-score” value worked out at 0.907.
As for `CC(=O)/C=C\[C@@H]1[C@@]2(C)CCCC(C)(C)C2CC[C@@]1(C)O` (some centres not stated), the figure is 2.31.
The same measure for `Cc1c(C)c2c(c(C)c1O)CCC(C)(CCCC(C)CCCC(C)CCCC(C)C)O2` (stereo not drawn) [alpha-TOCHOPHEROL]: 0.315; for `CC(=O)O[C@]1(C(C)=O)CC[C@H]2[C@@H]3C=C(C)C4=CC(=O)CC[C@]4(C)[C@H]3CC[C@@]21C`: 2.3.

(Values after the supplement of paper PMC3741180, “A Novel High Throughput Biochemical Assay to Evaluate the HuR Protein-RNA Complex Formation” (PLoS ONE, 2013).)
